23 compounds from PubChem BioAssay AID330 (DTP/NCI, 2004) can be followed below.

Molecules are shown by their SMILES. The list is a part of this screen's results and no random one: it gathers tests that were run many times, whatever their T/C, doses with no T/C, and many T/C values between a quarter and a half above the control. Other doses and runs of a compound stand elsewhere. T/C: endpoint of the treated group in % of that of the vehicle group. Some entries give survivors of the animals treated and no T/C: the source files T/C as zero there, which appears to mark a toxic dose or a test without result, not a measured value. Some doses without a T/C left all or most animals alive at the check, yet need not have been tolerated: survival well below the control is almost never listed, so the zero probably covers shortened survival too. Survivors were counted at the toxicity check, usually on the fifth day, unless a day is given; later deaths do not show. Schedule codes are those of the source, read here as Q, the interval in days (D) or hours (H), X, the number of doses. Signs of the kind (2×) stand for listed records that agree. Some entries hold several experiments; the results are listed from low to high. For survival time, this PubChem deposit counts one and a half times the control or more as active, and values a quarter to a half above the control carry no call in these data; other NCI protocols may use other cut-offs.

In this assay the test system is P388 leukemia ip, CD2F1 mice, survival T/C. Kind of assay: NCI In Vivo Anticancer Drug Screen. Data for tumor model P388 Leukemia (intraperitoneal) in CD2F1 (CDF1) mice. To be noted: T/C endpoint: median survival time, higher T/C = longer survival.
Setting [1] is: dose: 25.0 mg/kg/injection, schedule: Q01DX009 (ip), vehicle: water.
[2] abbreviates: dose: 200.0 mg/kg/injection, schedule: Q04DX003 (ip), vehicle: saline with Tween-80.
[3] abbreviates: dose: 400.0 mg/kg/injection, schedule: Q04DX003 (ip), vehicle: saline with Tween-80.
Where [4] appears, read: dose: 200.0 mg/kg/injection, schedule: Q01DX005 (ip), vehicle: saline with Tween-80.
The mark [5] stands for this setting: dose: 100.0 mg/kg/injection, schedule: Q01DX005 (ip), vehicle: Klucel (hydroxypropylcellulose) (HPC).
Setting [6] is: dose: 200.0 mg/kg/injection, schedule: Q01DX005 (ip), vehicle: Klucel (hydroxypropylcellulose) (HPC).
[7] abbreviates: dose: 200.0 mg/kg/injection, schedule: Q01DX009 (ip), vehicle: saline.
The mark [8] stands for this setting: dose: 100.0 mg/kg/injection, schedule: Q01DX009 (ip), vehicle: saline.

`COc1cccc2c1C(=O)c1c(O)c3c(c(O)c1C2=O)CC(O)(/C(C)=N/NC(=O)CCCCCC(=O)N/N=C(\C)C1(O)Cc2c(O)c4c(c(O)c2C(OC2CC(N)C(O)C(C)O2)C1)C(=O)c1c(OC)cccc1C4=O)CC3OC1CC(N)C(O)C(C)O1` (stereo not given): the T/C (dose: 0.78 mg/kg/injection, schedule: Q01DX009 (ip), vehicle: water) was 135 % of control. Further, the survivor count under setting [1] was 3 of 3 and 5 of 5.
As for `COc1cc(C(=O)CO)cc(OC)c1OC(C)=O`, the T/C under setting [2] is 125 % of control. Besides, the survivor count under setting [3] was 6 of 6 (2×).
In the case of `O=C1CN(c2ccccc2)C(=O)CN1/N=C/c1ccc[nH]1`, the survivor count (dose: 50.0 mg/kg/injection, schedule: Q01DX005 (ip), vehicle: saline with Tween-80) is reported as 6 of 6; the survivor count (dose: 100.0 mg/kg/injection, schedule: Q01DX005 (ip), vehicle: saline with Tween-80) is given as 6 of 6; the survivor count under setting [4] is 6 of 6.
On to `C[C-]=NCCCl.C[C-]=O.[C-]#[O+].[C-]#[O+].[C-]#[O+].[C-]#[O+].[Re]`, for which the survivor count runs as follows: under setting [5], 2 of 5; under setting [6], 0 of 5.
Regarding `C1CCC(C2CCCC[N-]2)[N-]C1.O.O.[Pd+2]` (stereo not given), for the setting “dose: 50.0 mg/kg/injection, schedule: Q04DX003 (ip), vehicle: saline with Tween-80”, the T/C is 125 % of control. In addition, the survivor count reads like this: (dose: 100.0 mg/kg/injection, schedule: Q04DX003 (ip), vehicle: saline with Tween-80) 2 of 6; under setting [2], 1 of 6; under setting [3], 0 of 6.
Regarding `CC(C)(C)B1N(c2ccccc2)N=NN1C(C)(C)C`, where the note is “dose: 60.0 mg/kg/injection, schedule: Q01DX005 (ip), vehicle: saline”, the survivor count is given as 5 of 6.
For the compound `Cc1cc(NCCCCCCNc2cc(C)nc3cc(N)ccc23)c2ccc(N)cc2n1`, the T/C (dose: 3.13 mg/kg/injection, schedule: Q01DX009 (ip), vehicle: other) is 133 % of control; the T/C (dose: 6.25 mg/kg/injection, schedule: Q01DX009 (ip), vehicle: other) was 132 and 137 % of control; the T/C (dose: 12.5 mg/kg/injection, schedule: Q01DX009 (ip), vehicle: other) was 132 and 147 % of control. Besides, the survivor count by setting is: (dose: 50.0 mg/kg/injection, schedule: Q01DX009 (ip), vehicle: other) 1 of 6 and 2 of 6; (dose: 100.0 mg/kg/injection, schedule: Q01DX009 (ip), vehicle: other) 0 of 6.
On to `CC1(C)C(=O)N2C(=O)CC(=O)N2C1=O`, for which the survivor count (dose: 60.0 mg/kg/injection, schedule: Q01DX005 (ip), vehicle: saline with Tween-80) was 6 of 6.
As to `COc1ccc(CC2C(=O)NC(C)C(=O)N(C)C3C(=O)N(C)C(Cc4ccc(OC(C)=O)c(c4)Oc4ccc(cc4)C3OC(C)=O)C(=O)NC(C)C(=O)NC(C)C(=O)N2C)cc1` (stereo not given), the T/C was 136 % of control (dose: 0.25 mg/kg/injection, schedule: Q01DX009 (ip), vehicle: none); 148 % of control (dose: 0.5 mg/kg/injection, schedule: Q01DX009 (ip), vehicle: none); 148 % of control (dose: 1.0 mg/kg/injection, schedule: Q01DX009 (ip), vehicle: none).
Take `Fc1cccc(C(Nc2nncs2)Nc2nncs2)c1`: the T/C under setting [6] was 129 and 138 % of control.
For the compound `C=C(Br)CC(N)C(=O)O` (stereo not given), under setting [6], the survivor count is given as 3 of 5.
`CC1=NN(c2cccc(S(=O)(=O)O)c2)C(=O)C1N=Nc1cc(Cl)cc(S(=O)(=O)O)c1O.CC1=NN(c2cccc(S(=O)(=O)O)c2)C(=O)C1N=Nc1cc(Cl)cc(S(=O)(=O)O)c1O.[Cr]` (stereo not given): the T/C under setting [7] is 134 % of control.
With `[CH3][Ga]([CH3])[n]1cccn1`, the survivor count was 0 of 6 (dose: 12.5 mg/kg/injection, schedule: Q01DX005 (ip), vehicle: Klucel (hydroxypropylcellulose) (HPC)); 0 of 6 (dose: 50.0 mg/kg/injection, schedule: Q01DX005 (ip), vehicle: Klucel (hydroxypropylcellulose) (HPC)); 0 of 6 under setting [5]; 0 of 6 under setting [6].
As for `C=C1C(=O)OC2CCCC(O)C12` (stereo not given), the survivor count (dose: 200.0 mg/kg/injection, schedule: Q04DX003 (ip), vehicle: Klucel (hydroxypropylcellulose) (HPC)) is 0 of 6.
`O=C1C(N2CCCCC2)=C(N2CC2)C(=O)C(N2CCCCC2)=C1N1CC1`: under “dose: 5.0 mg/kg/injection, schedule: Q01DX009 (ip), vehicle: saline”, the T/C is 144 and 146 % of control. The survivor count reads like this: (dose: 10.0 mg/kg/injection, schedule: Q01DX009 (ip), vehicle: saline) 6 of 6; (dose: 20.0 mg/kg/injection, schedule: Q01DX009 (ip), vehicle: saline) 2 of 6.
In the case of `[Co].[N-]=C=S.[N-]=C=S.[N-]=C=S.[N-]=C=S`, the survivor count reads like this: under setting [8], 0 of 6; under setting [7], 0 of 6.
Take `CN1CC2OC2(c2ccccc2)C(c2ccccc2)C1` (stereo not given): under setting [4], the survivor count is listed as 0 of 6.
Regarding `O=C1c2ccccc2C(=O)c2c(NCCN3CCNCC3)ccc(NCCN3CCNCC3)c21`, the T/C is, setting by setting: under setting [1], 134 % of control; (dose: 32.0 mg/kg/injection, schedule: Q01DX009 (ip), vehicle: acid diluted with saline) 126 % of control. Besides, the survivor count is 3 of 8 (dose: 64.0 mg/kg/injection, schedule: Q01DX009 (ip), vehicle: acid diluted with saline); 0 of 6 (dose: 100.0 mg/kg/injection, schedule: Q01DX009 (ip), vehicle: water); 0 of 6 (dose: 200.0 mg/kg/injection, schedule: Q01DX009 (ip), vehicle: water); 0 of 6 (dose: 400.0 mg/kg/injection, schedule: Q01DX009 (ip), vehicle: water).
As to `CC1(C)C[C@H]2C=C(C=O)[C@]34C[C@]3(C(=O)OC4O)[C@H]2C1` (stereo not given in full), the T/C (dose: 0.39 mg/kg/injection, schedule: Q01DX009 (ip), vehicle: Klucel (hydroxypropylcellulose) (HPC)) is 126 % of control. The survivor count is, setting by setting: (dose: 3.12 mg/kg/injection, schedule: Q01DX009 (ip), vehicle: Klucel (hydroxypropylcellulose) (HPC)) 1 of 6; (dose: 6.25 mg/kg/injection, schedule: Q01DX009 (ip), vehicle: Klucel (hydroxypropylcellulose) (HPC)) 1 of 6; (dose: 12.5 mg/kg/injection, schedule: Q01DX009 (ip), vehicle: Klucel (hydroxypropylcellulose) (HPC)) 0 of 6; (dose: 25.0 mg/kg/injection, schedule: Q01DX009 (ip), vehicle: Klucel (hydroxypropylcellulose) (HPC)) 0 of 6.
Regarding `Cc1csc(NC(=O)Nc2ccc(F)cc2[N+](=O)[O-])n1`, the survivor count (dose: 200.0 mg/kg/injection, schedule: Q01DX009 (ip), vehicle: saline with Tween-80) is reported as 4 of 6.
For the compound `CC(C)(S[S-])S[S-].[Ti].[c-]1[c-][c-][cH-][c-]1.[c-]1[c-][c-][cH-][c-]1`, the survivor count by setting is: (dose: 60.0 mg/kg/injection, schedule: Q01DX005 (ip), vehicle: saline + Tween-80 + alcohol) 0 of 6; (dose: 120.0 mg/kg/injection, schedule: Q01DX005 (ip), vehicle: saline + Tween-80 + alcohol) 0 of 6; (dose: 240.0 mg/kg/injection, schedule: Q01DX005 (ip), vehicle: saline + Tween-80 + alcohol) 0 of 6.
In the case of `COc1ccc(NC(=S)Nc2ccc(S(=O)(=O)N3CCCCC3)cc2)cc1`, the survivor count reads like this: (dose: 50.0 mg/kg/injection, schedule: Q01DX009 (ip), vehicle: Klucel (hydroxypropylcellulose) (HPC)) 6 of 6; (dose: 200.0 mg/kg/injection, schedule: Q01DX009 (ip), vehicle: Klucel (hydroxypropylcellulose) (HPC)) 3 of 6.
Take `Cc1cc(N=Nc2ccc(N=Nc3ccc(S(=O)(=O)O)cc3)cc2)cc(C(=O)O)c1O`: the survivor count under setting [8] was 6 of 6.
